Measurements as given in publication doi:10.1101/2020.11.30.404178.
No constants are given. Whether binding was seen depends on the method and setting. Binding seen in cells or lysates may run through a third protein. Some results given as binding are weak or reduced against the parent protein; the word gives no strength.

Sequences of proteins named here, by UniProt entry; tags and fusion partners are left off. A change or cut given only in a name is not applied to a line headed by its entry. A line that says so, or that is headed by a name, gives the form on record, which may keep a tag or linker. Residues count along the entry.
UniProt P35869: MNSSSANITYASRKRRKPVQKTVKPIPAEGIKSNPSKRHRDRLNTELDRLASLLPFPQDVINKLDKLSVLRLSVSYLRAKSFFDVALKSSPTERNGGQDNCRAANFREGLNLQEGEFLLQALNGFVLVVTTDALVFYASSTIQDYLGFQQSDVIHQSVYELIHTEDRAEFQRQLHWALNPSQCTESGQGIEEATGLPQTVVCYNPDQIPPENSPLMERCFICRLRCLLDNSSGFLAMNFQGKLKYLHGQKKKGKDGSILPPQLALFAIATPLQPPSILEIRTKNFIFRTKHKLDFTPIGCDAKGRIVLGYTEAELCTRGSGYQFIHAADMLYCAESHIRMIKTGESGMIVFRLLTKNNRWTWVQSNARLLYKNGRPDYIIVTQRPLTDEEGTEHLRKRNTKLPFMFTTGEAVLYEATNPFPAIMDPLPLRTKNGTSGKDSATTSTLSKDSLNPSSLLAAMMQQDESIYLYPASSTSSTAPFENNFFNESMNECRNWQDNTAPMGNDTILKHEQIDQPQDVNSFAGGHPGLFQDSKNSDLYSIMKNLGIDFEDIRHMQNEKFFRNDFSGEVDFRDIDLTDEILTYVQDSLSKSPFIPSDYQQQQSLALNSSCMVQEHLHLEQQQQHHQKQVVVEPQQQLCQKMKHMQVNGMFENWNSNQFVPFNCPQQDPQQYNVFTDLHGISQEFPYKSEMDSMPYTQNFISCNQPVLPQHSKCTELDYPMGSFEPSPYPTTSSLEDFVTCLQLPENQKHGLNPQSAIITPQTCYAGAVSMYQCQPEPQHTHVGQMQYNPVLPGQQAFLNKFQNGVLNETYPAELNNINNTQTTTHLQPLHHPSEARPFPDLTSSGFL
aryl hydrocarbon receptor (AhR) (human (endogenous in LS180)): residues 11-848 of P35869
6×His-tagged human AhR fragment, residues 23–273: residues 23-273 of P35869
UniProt P27540: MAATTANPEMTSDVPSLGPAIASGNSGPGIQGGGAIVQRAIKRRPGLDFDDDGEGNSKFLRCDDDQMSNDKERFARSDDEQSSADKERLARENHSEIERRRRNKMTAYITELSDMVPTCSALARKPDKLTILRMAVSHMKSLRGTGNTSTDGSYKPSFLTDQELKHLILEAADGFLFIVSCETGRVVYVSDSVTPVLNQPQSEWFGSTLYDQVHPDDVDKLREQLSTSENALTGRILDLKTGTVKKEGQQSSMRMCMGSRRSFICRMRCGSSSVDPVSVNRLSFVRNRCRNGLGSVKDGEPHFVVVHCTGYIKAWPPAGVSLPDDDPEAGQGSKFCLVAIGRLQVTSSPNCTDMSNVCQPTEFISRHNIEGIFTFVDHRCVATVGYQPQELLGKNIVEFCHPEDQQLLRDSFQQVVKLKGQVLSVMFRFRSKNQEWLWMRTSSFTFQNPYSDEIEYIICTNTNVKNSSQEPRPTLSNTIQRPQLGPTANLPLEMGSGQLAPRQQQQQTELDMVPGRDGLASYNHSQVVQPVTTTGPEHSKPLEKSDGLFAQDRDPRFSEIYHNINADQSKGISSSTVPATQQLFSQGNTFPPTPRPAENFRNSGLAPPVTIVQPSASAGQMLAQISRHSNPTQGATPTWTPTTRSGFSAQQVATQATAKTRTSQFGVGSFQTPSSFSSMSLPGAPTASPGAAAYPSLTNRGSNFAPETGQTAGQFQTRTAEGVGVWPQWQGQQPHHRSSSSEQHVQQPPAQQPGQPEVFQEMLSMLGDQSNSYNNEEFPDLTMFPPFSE

Assays:
[1] = molecular target: aryl hydrocarbon receptor (AhR) (human (endogenous in LS180)) (UniProt P35869); assay: co-IP
[2] = molecular target: 6×His-tagged human AhR fragment, residues 23–273 (human) (UniProt P35869); assay: pull-down

binding [1] | binding [2] | Substance
binds | – | AhR nuclear translocator (ARNT) (from UniProt P27540 1-789)
– | binds | FLAG-tagged mouse ARNT fragment, residues 85–345 (from UniProt P53762 85-345) (domain or fragment)
